{"sequences": {"note": "Sequences of proteins named here, by UniProt entry; tags and fusion partners are left off. A change or cut given only in a name is not applied to a line headed by its entry.", "UniProt P18054": "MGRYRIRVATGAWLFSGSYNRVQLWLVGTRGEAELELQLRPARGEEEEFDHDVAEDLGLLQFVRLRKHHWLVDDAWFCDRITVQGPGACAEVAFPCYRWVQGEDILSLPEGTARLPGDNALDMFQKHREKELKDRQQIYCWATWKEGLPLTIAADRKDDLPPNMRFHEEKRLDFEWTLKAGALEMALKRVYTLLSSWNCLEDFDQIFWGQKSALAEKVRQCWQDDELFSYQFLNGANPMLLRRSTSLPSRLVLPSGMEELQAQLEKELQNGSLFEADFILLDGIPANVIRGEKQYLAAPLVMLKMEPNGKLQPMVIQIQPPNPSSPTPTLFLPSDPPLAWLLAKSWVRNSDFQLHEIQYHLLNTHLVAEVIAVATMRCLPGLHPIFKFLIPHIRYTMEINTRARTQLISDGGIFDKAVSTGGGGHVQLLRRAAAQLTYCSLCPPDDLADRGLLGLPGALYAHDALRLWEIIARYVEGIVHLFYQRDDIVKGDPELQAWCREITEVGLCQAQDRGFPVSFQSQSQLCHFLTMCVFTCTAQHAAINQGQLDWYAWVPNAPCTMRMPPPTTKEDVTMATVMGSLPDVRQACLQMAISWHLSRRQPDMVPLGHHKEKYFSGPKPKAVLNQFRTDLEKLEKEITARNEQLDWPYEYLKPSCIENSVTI"}, "source": "PubChem BioAssay AID1671190", "about": "(National Center for Advancing Translational Sciences (NCATS), 2021)", "note": "Out of some 580,000 compounds screened, about 6,100 (1.1%) were called active. Inconclusive results, whose numbers are uncertain, are shown with a selection of clear calls. Calls follow the shape of the dose curve; as a rule, active = well fitted inhibition curve with a large enough effect; inconclusive = small, poorly fitted or top-dose-only effect, or another doubt; inactive = no such curve, though single readings can be large or run the other way. Potencies of inconclusive entries are doubtful fits and often do not repeat. % is scaled to controls: 0 for no effect and ±100 for the full control effect; potency is read from the fitted curve at half-maximal effect."}
{"biological_target": "Polyunsaturated fatty acid lipoxygenase ALOX12 (Homo sapiens) (UniProt P18054)", "test": "Primary qHTS assay for inhibitors of human arachidonate 12S-lipoxygenase (ALOX12): Round 2", "conditions": "purified 12hLO, xylenol orange hydroperoxide absorbance; activity change, negative = inhibition: at 108 µM (top of the series) unless noted", "how_it_was_run": "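Purified human 12hLO at 150 nM in 25 mM Hepes, 0.01% Triton X-100, pH 7.0, preincubated 15 min at room temperature with compound. Reaction started with 40 uM arachidonic acid, 30 min at room temperature. Hydroperoxide measured by Fe-xylenol orange, 573/405 nm absorbance ratio.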"}
{"smiles": "Cc1nnc2n1CCC(NC(=O)CCc1nc3ccccc3s1)CC2", "note": "(stereo unspecified)", "activity change, negative = inhibition": "inactive: 30.1%"}
{"smiles": "O=C(O)CC(C(=O)Nc1ccc(Cl)cc1)N1CCCCCC1", "note": "(stereo unspecified)", "Potency": "inconclusive: 50.1 µM [inhibitor, partial curve, poor fit]"}
{"smiles": "N#Cc1ccc(CSc2ccccc2C(=O)NCCc2ccc3c(c2)OCCO3)cc1", "Potency": "inconclusive: 141 µM [inhibitor, single point]"}
{"smiles": "CCOc1ccc(S(=O)(=O)Nc2ccc(C)cc2)cc1-c1nc2c(C(C)(C)C)nn(C)c2c(=O)[nH]1", "activity change, negative = inhibition": "inactive: -13.5%"}
{"smiles": "CCc1ccc(N2CN=c3s/c(=C\\c4ccccc4)c(=O)n3C2)cc1", "Potency": "inconclusive: 141 µM [inhibitor, single point]"}
{"smiles": "COCC(=O)N(C)C[C@@H]1Oc2cc(Br)ccc2S(=O)(=O)N([C@H](C)CO)C[C@H]1C", "activity change, negative = inhibition": "inactive: 8.26%"}
{"smiles": "COc1ccc(C(=O)Nc2ccc3nc(N4CCCCC4)cc(C)c3c2)c(OC)c1", "Potency": "inactive"}
{"smiles": "Nc1nc(N=Nc2ccc(O)cc2)cc(=O)[nH]1", "Potency": "inconclusive: 17.8 µM [inhibitor, partial curve, poor fit]"}
{"smiles": "COc1ccc(N2CCN(S(=O)(=O)CCNC(=O)Cc3ccc(-c4ccccc4)cc3)CC2)cc1", "Potency": "inconclusive: 158 µM [inhibitor, partial curve, poor fit]"}
{"smiles": "CCN=C1S/C(=C\\c2ccc(OCC)c(OC)c2)C(=O)N1CC", "activity change, negative = inhibition": "inactive: -9.46%"}
{"smiles": "CCCc1oc2ccc(NS(=O)(=O)c3ccc(OC)cc3)cc2c1C(=O)OCC", "Potency": "inconclusive: 56.2 µM [inhibitor, partial curve, poor fit]"}
{"smiles": "Cn1nnc(NC(=S)NC(=O)c2cccs2)n1", "Potency": "inconclusive: 4.47 µM [inhibitor, full curve, poor fit]"}
{"smiles": "CC1(C)[C@H]2CC[C@@H](CNC(=O)c3cccc(Cl)c3)[C@@H]1C2", "activity change, negative = inhibition": "inactive: -3.9% [at 176 µM]"}
{"smiles": "COC(=O)Cc1c(C)nc2nc(NCc3c(F)cccc3Cl)[nH]n2c1=O", "Potency": "inconclusive: 1 µM [inhibitor, full curve, poor fit]"}
{"smiles": "O=C(Cc1ccc(C(F)(F)F)cc1)NCCc1ccccn1", "activity change, negative = inhibition": "inactive: -13%"}
{"smiles": "COc1cc(/C=N/Nc2ccccc2[N+](=O)[O-])cc(OC)c1O", "activity change, negative = inhibition": "inactive: -21.9%"}
{"smiles": "COc1ccc(N2CCN(c3cc(C)nc4ccc(OC)cc34)CC2)cc1", "Potency": "inconclusive: 56.2 µM [inhibitor, partial curve, poor fit]"}
{"smiles": "O=C(CNC(=O)N1CC(=O)Nc2ccccc21)NCc1ccccc1", "activity change, negative = inhibition": "inactive: 0%"}
{"smiles": "COc1ccc(NC(=O)N2CCc3c(C(=O)NCCN4CCCCCC4)cccc32)cc1", "activity change, negative = inhibition": "inactive: 36.8%"}
{"smiles": "Cc1ccc(NC(=O)CC(O)(C(F)(F)F)C(F)(F)F)cc1", "activity change, negative = inhibition": "inactive: -4.11%"}
{"smiles": "COc1ccccc1NC(=O)c1ccc(C(=O)Nc2ccccc2OC)nc1", "Potency": "inconclusive: 35.5 µM [inhibitor, partial curve]"}
{"smiles": "CC(C)C(CNC(=O)c1n[nH]c(=O)c2ccccc12)N(C)C", "note": "(stereo unspecified)", "activity change, negative = inhibition": "inactive: -1.68%"}
{"smiles": "Cc1cccc(C(=O)NCC(=O)Nc2ccc(S(=O)(=O)Nc3nc(C)cc(C)n3)cc2)c1", "Potency": "inconclusive: 25.1 µM [inhibitor, partial curve, poor fit]"}
{"smiles": "Brc1ccc(Oc2ccc3nnnn3n2)cc1", "Potency": "inconclusive: 39.8 µM [inhibitor, partial curve, poor fit]"}
{"smiles": "Cc1ccc(C(CC(=O)Nc2ccc(C)cc2C)N2Cc3ccccc3C2=O)cc1", "note": "(stereo unspecified)", "Potency": "inconclusive: 100 µM [inhibitor, partial curve, poor fit]"}
{"smiles": "CCOC(=O)c1c(NC(C)=O)c2c3c(sc2n1Cc1cccc(Cl)c1)CCCC3", "Potency": "inconclusive: 126 µM [inhibitor, partial curve, poor fit]"}
{"smiles": "CN[C@@H]1C[C@H]2O[C@@](C)([C@H]1OC)n1c3ccccc3c3c4c(c5c6ccccc6n2c5c31)C(=O)N[C@H]4O", "Potency": "inconclusive: 0.273 µM [inhibitor, full curve, poor fit]"}
{"smiles": "C=CCc1c(C)nc2c(OC)cccc2c1Cl", "activity change, negative = inhibition": "inactive: -3.43%"}
{"smiles": "COc1ccc(-c2nc(C3CC(=O)N(c4ccc(F)c(Cl)c4)C3)no2)c(C)c1", "note": "(stereo unspecified)", "activity change, negative = inhibition": "inactive: -9.97%"}
{"smiles": "Cc1cc2oc(=O)cc(CN3CCN(c4ccccc4O)CC3)c2cc1Cl", "Potency": "inconclusive: 35.5 µM [inhibitor, partial curve, poor fit]"}
{"smiles": "O=C(/C=C/c1cccc(Br)c1)c1ccc2c3c(cccc13)CC2", "activity change, negative = inhibition": "inactive: -1.7%"}
{"smiles": "COc1cccc(NC(=O)CN(C)C(=O)/C=C/c2cn(-c3ccccc3)nc2-c2ccc(OC)c(OC)c2)c1", "Potency": "inconclusive: 100 µM [inhibitor, single point]"}
{"smiles": "CC(C)C[C@H]1CN(CCCC[C@@H]2CNC(=O)C(=O)N2CC2CCCCC2)C(=O)C(=O)N1CC1CCCCC1", "Potency": "inconclusive: 50.1 µM [inhibitor, partial curve, poor fit]"}
{"smiles": "CN(Cc1ccco1)c1nc(-c2ccccc2C(F)(F)F)nc2ccccc12", "Potency": "inconclusive: 44.7 µM [inhibitor, partial curve, poor fit]"}
{"smiles": "NC1=NC(=O)C(CC(=O)Nc2ccc3c(c2)OCO3)S1", "note": "(stereo unspecified)", "activity change, negative = inhibition": "inactive: 2.61%"}
{"smiles": "COc1cccc(CNc2nc(NCc3cccs3)nc3ccsc23)c1", "Potency": "inconclusive: 50.1 µM [inhibitor, partial curve, poor fit]"}
{"smiles": "CC(C)(C)c1ccccc1OCCN1CCCC1", "Potency": "inconclusive: 0.355 µM [inhibitor, full curve, poor fit]"}
{"smiles": "CS(=O)Cc1cccc(C(=O)N2CCC(n3cccc3)CC2)c1", "note": "(stereo unspecified)", "activity change, negative = inhibition": "inactive: -8.04%"}
{"smiles": "CCCc1nnc2sc(COc3ccc(Br)cc3)nn12", "Potency": "inconclusive: 0.126 µM [inhibitor, full curve, poor fit]"}
{"smiles": "Cc1nc(SCC(=O)N2CCN(c3ccccc3)CC2)c2oc3ccccc3c2n1", "activity change, negative = inhibition": "inactive: 0%"}
{"smiles": "O=C(Nc1ccc(N2CCOCC2)cc1)c1ccc(Cl)c(S(=O)(=O)N2CCCC2)c1", "activity change, negative = inhibition": "inactive: 0%"}
{"smiles": "CCNC(=O)c1cccc(NC(=O)c2cc(C3CC3)nc3ccccc23)c1", "Potency": "inconclusive: 39.8 µM [inhibitor, partial curve, poor fit]"}
{"smiles": "CCCc1cc(C(=O)N/N=C2\\CC3CCC2(C)C3(C)C)cs1", "note": "(stereo unspecified)", "activity change, negative = inhibition": "inactive: 12.6%"}
{"smiles": "C=CCNC(=S)/N=c1/ccccn1Cc1ccccc1", "Potency": "active: 44.7 µM"}
{"smiles": "Cc1ccccc1NC(=S)N(CCN(C)C)C(C)c1ccccn1", "note": "(stereo unspecified)", "activity change, negative = inhibition": "inactive: 19.3%"}
{"smiles": "O=C(NNS(=O)(=O)c1cc(Cl)c(Cl)cc1Cl)c1cccnc1", "Potency": "inconclusive: 35.5 µM [inhibitor, partial curve, poor fit]"}
